The supplement of paper PMC6078165

Tested on: MDAMB468
Assay: relative JC-1 red fluorescence (viability) vs pre-drug, coculture with fibroblast (fraction); higher = more viable cancer cells
Procedure: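 JC-1 labelled TNBC cells cocultured 1:1 (1,500 cells each) with CellTrace Violet stained primary or stromal fibroblasts in 384-well plates in FluoroBrite medium, treated with one of 42 anticancer drugs at 0.1, 1, 10 or 100 uM. JC-1 red fluorescence (mitochondrial integrity in cancer cells only) was read by plate reader every 8 h for 72 h. Values are normalised to each well's pre-drug value. The stock of one drug was tenfold lower, so its dose labels may be too high.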

O=NN(CCCl)C(=O)NCCCl [Carmustine]
relative JC-1 red fluorescence
Settings | 8 h | 16 h | 24 h | 32 h | 40 h | 48 h | 56 h | 64 h | 72 h
0.1 µM, coculture fibroblast: C12385 | 0.898 | 0.84 | 0.844 | 0.782 | 0.747 | 0.735 | 0.694 | 0.676 | 0.661
0.1 µM, coculture fibroblast: H6013 | 0.896 | 0.84 | 0.79863 | 0.7915 | 0.772 | 0.788 | 0.759 | 0.742 | 0.701
0.1 µM, coculture fibroblast: H6019 | 0.8405 | 0.789 | 0.768 | 0.708 | 0.666 | 0.645 | 0.598 | 0.555 | 0.525
0.1 µM, coculture fibroblast: H6076 | 0.955 | 0.9635 | 0.897 | 0.92 | 0.854 | 0.86 | 0.83 | 0.818 | 0.889
0.1 µM, coculture fibroblast: H6231 | 0.84 | 0.892 | 0.81876 | 0.8024 | 0.7369 | 0.719 | 0.675 | 0.66 | 0.646
0.1 µM, coculture fibroblast: HADF | 0.8873 | 0.868 | 0.779 | 0.766 | 0.704 | 0.693 | 0.643 | 0.621 | 0.587
0.1 µM, coculture fibroblast: HCFa | 0.8793 | 0.79973 | 0.751 | 0.73 | 0.664 | 0.655 | 0.602 | 0.566 | 0.51
0.1 µM, coculture fibroblast: HCPF | 0.8885 | 0.963 | 0.874 | 0.853 | 0.774 | 0.756 | 0.7058 | 0.6907 | 0.686
0.1 µM, coculture fibroblast: HHSteC | 0.899 | 0.852 | 0.78566 | 0.768 | 0.7094 | 0.69894 | 0.636 | 0.612 | 0.565
0.1 µM, coculture fibroblast: HMF | 0.8627 | 0.931 | 0.859 | 0.856 | 0.787 | 0.782 | 0.736 | 0.721 | 0.721
0.1 µM, coculture fibroblast: HPFa | 0.923 | 0.897 | 0.831 | 0.772 | 0.724 | 0.72 | 0.647 | 0.61 | 0.531
0.1 µM, coculture fibroblast: HUF | 0.912 | 0.86 | 0.81 | 0.738 | 0.677 | 0.651 | 0.609 | 0.583 | 0.555
0.1 µM, coculture fibroblast: Hs5 | 0.8206 | 0.9 | 0.933 | 0.9081 | 0.847 | 0.8067 | 0.76 | 0.715 | 0.73
0.1 µM, coculture fibroblast: Hs27A | 0.8403 | 0.758 | 0.734 | 0.734 | 0.666 | 0.6549 | 0.62 | 0.599 | 0.561
0.1 µM, coculture fibroblast: Hs343T | 0.932 | 0.814 | 0.822 | 0.928 | 0.849 | 0.832 | 0.772 | 0.748 | 0.727
0.1 µM, coculture fibroblast: WS1 | 0.8864 | 0.812 | 0.747 | 0.684 | 0.639 | 0.611 | 0.583 | 0.552 | 0.54
1 µM, coculture fibroblast: C12385 | 0.859 | 0.837 | 0.8179 | 0.774 | 0.748 | 0.752 | 0.717 | 0.706 | 0.706
1 µM, coculture fibroblast: H6013 | 0.8377 | 0.8443 | 0.805 | 0.795 | 0.7875 | 0.8006 | 0.7767 | 0.764 | 0.72
1 µM, coculture fibroblast: H6019 | 0.8049 | 0.81 | 0.791 | 0.764 | 0.749 | 0.741 | 0.698 | 0.676 | 0.651
1 µM, coculture fibroblast: H6076 | 0.899 | 0.889 | 0.877 | 0.897 | 0.834 | 0.849 | 0.838 | 0.838 | 0.903
1 µM, coculture fibroblast: H6231 | 0.848 | 0.855 | 0.816 | 0.831 | 0.758 | 0.747 | 0.704 | 0.693 | 0.693
1 µM, coculture fibroblast: HADF | 0.888 | 0.8189 | 0.768 | 0.755 | 0.707 | 0.692 | 0.656 | 0.646 | 0.615
1 µM, coculture fibroblast: HCFa | 0.8393 | 0.829 | 0.775 | 0.745 | 0.698 | 0.681 | 0.635 | 0.591 | 0.541
1 µM, coculture fibroblast: HCPF | 0.82 | 0.865 | 0.826 | 0.8356 | 0.75664 | 0.737 | 0.705 | 0.695 | 0.701
1 µM, coculture fibroblast: HHSteC | 0.865 | 0.86 | 0.827 | 0.797 | 0.769 | 0.763 | 0.703 | 0.687 | 0.635
1 µM, coculture fibroblast: HMF | 0.825 | 0.857 | 0.818 | 0.803 | 0.724 | 0.714 | 0.679 | 0.663 | 0.663
1 µM, coculture fibroblast: HPFa | 0.942 | 0.8706 | 0.846 | 0.79453 | 0.768 | 0.771 | 0.7 | 0.675 | 0.583
1 µM, coculture fibroblast: HUF | 0.8633 | 0.8031 | 0.767 | 0.706 | 0.655 | 0.635 | 0.587 | 0.571 | 0.56
1 µM, coculture fibroblast: Hs5 | 0.973 | 0.917 | 0.8943 | 0.866 | 0.785 | 0.756 | 0.724 | 0.685 | 0.7
1 µM, coculture fibroblast: Hs27A | 0.8594 | 0.849 | 0.78 | 0.777 | 0.726 | 0.716 | 0.6766 | 0.6536 | 0.614
1 µM, coculture fibroblast: Hs343T | 0.851 | 0.872 | 0.8388 | 0.823 | 0.735 | 0.717 | 0.678 | 0.666 | 0.661
1 µM, coculture fibroblast: WS1 | 0.8506 | 0.812 | 0.776 | 0.728 | 0.681 | 0.664 | 0.643 | 0.622 | 0.615

The reference is the same well before dosing, and untreated signal decays as well.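 Fibroblast labels denote human fibroblasts, mainly primary ones from uterus (C12385, HUF), lung (H6013), bone (Hs27A), adrenal (HADF) and skin (WS1), plus mammary HMF and breast cancer-associated Hs343T. Cancer cells are basal-like or mesenchymal-like triple-negative breast cancer lines. A hit is a response shift exceeding 3x replicate standard deviation. The tissue of the other fibroblasts is not given here.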
